From article doi:10.1101/2022.09.12.507607
Results are given in words; binding and its absence hold for the method and conditions named. Binding seen in cells or lysates may run through a third protein. Here binding means that the protein was enriched with, or labelled near, the bait; the list need not be complete.

Molecular target: chromodomain helicase DNA-binding protein 4 (CHD4), wild type, mouse (mouse (endogenous in embryonic hearts)), Q6PDQ2
Assay: affinity purification with mass spectrometry
Details: remark: other sources report otherwise

binding: binds
B1: SMARCA5, Q91ZW3 1-1051 (protein)
chain: MSSAVEPPPPPPPESAPSKPSAAGAGGSSSGNKGGPEGGAAPAAPCAAGSGPADTEMEEVFDHGSPGKQKEIQEPDPTYEEKMQTDRANRFEYLLKQTELFAHFIQPAAQKTPTSPLKMKPGRPRVKKDEKQNLLSVGDYRHRRTEQEEDEELLTESSKATNVCTRFEDSPSYVKWGKLRDYQVRGLNWLISLYENGINGILADEMGLGKTLQTISLLGYMKHYRNIPGPHMVLVPKSTLHNWMSEFKKWVPTLRSVCLIGDKEQRAAFVRDVLLPGEWDVCVTSYEMLIKEKSVFKKFNWRYLVIDEAHRIKNEKSKLSEIVREFKTTNRLLLTGTPLQNNLHELWSLLNFLLPDVFNSADDFDSWFDTNNCLGDQKLVERLHMVLRPFLLRRIKADVEKSLPPKKEVKIYVGLSKMQREWYTRILMKDIDILNSAGKMDKMRLLNILMQLRKCCNHPYLFDGAEPGPPYTTDMHLVTNSGKMVVLDKLLPKLKEQGSRVLIFSQMTRVLDILEDYCMWRNYEYCRLDGQTPHDERQDSINAYNEPNSTKFVFMLSTRAGGLGINLATADVVILYDSDWNPQVDLQAMDRAHRIGQTKTVRVFRFITDNTVEERIVERAEMKLRLDSIVIQQGRLVDQNLNKIGKDEMLQMIRHGATHVFASKESEITDEDIDGILERGAKKTAEMNEKLSKMGESSLRNFTMDTESSVYNFEGEDYREKQKIAFTEWIEPPKRERKANYAVDAYFREALRVSEPKAPKAPRPPKQPNVQDFQFFPPRLFELLEKEILYYRKTIGYKVPRSPDLPNAAQAQKEEQLKIDEAEPLNDEELEEKEKLLTQGFTNWNKRDFNQFIKANEKWGRDDIENIAREVEGKTPEEVIEYSAVFWERCNELQDIEKIMAQIERGEARIQRRISIKKALDTKIGRYKAPFHQLRISYGTNKGKNYTEEEDRFLICMLHKLGFDKENVYDELRQCIRNSPQFRFDWFLKSRTAMELQRRCNTLITLIERENMELEEKEKAEKKKRGPKPSTQKRKMDGAPDGRGRKKKLKL
